The other results are listed elsewhere or left out.

Sequences of proteins named here, by UniProt entry; tags and fusion partners are left off. A change or cut given only in a name is not applied to a line headed by its entry.
UniProt P50570: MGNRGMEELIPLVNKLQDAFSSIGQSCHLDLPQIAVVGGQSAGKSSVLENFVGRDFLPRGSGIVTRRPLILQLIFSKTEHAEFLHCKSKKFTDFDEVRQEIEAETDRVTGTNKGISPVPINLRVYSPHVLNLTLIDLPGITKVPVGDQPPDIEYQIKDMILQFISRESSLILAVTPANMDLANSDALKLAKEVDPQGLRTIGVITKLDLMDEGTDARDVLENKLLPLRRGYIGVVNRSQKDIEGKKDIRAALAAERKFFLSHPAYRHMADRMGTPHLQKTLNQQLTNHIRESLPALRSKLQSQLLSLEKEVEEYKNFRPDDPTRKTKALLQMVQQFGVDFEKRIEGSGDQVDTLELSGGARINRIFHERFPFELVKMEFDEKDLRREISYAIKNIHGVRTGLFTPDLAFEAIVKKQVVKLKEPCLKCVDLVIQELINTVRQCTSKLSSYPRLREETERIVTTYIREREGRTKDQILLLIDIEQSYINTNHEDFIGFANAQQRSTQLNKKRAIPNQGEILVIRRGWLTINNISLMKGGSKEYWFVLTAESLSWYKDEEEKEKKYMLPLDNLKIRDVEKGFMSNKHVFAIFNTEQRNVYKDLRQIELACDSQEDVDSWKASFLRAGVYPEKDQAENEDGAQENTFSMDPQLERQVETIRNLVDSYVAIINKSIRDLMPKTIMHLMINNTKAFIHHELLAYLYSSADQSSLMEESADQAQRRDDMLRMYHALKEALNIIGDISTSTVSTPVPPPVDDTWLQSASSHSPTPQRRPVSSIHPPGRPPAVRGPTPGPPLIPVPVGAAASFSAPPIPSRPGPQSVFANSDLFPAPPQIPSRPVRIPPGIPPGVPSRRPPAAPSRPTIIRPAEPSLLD
UniProt Q96HY7: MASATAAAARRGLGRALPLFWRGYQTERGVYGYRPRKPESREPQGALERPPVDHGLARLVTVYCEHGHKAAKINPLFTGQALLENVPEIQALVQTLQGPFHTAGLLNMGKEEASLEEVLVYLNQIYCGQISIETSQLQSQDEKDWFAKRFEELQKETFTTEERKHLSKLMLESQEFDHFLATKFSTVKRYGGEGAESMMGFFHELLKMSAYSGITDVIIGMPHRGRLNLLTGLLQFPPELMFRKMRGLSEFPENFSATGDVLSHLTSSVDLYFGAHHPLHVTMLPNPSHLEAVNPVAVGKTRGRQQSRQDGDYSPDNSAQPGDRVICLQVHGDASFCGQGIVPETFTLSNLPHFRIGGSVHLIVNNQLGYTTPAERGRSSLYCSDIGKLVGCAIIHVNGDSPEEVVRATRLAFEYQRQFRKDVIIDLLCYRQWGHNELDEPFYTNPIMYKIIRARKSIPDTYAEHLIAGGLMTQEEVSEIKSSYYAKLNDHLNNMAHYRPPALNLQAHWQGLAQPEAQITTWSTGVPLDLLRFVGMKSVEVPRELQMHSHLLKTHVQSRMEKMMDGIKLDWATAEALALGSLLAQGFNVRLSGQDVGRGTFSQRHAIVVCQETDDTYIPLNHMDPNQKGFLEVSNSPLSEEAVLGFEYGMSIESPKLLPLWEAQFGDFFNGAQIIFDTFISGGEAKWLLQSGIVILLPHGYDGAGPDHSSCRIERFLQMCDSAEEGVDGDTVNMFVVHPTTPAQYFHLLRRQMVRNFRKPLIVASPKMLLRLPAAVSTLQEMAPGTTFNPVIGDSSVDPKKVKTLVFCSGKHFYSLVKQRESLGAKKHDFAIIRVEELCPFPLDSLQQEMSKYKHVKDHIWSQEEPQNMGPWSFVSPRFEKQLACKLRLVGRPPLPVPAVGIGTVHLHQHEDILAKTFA
UniProt Q9NYP3: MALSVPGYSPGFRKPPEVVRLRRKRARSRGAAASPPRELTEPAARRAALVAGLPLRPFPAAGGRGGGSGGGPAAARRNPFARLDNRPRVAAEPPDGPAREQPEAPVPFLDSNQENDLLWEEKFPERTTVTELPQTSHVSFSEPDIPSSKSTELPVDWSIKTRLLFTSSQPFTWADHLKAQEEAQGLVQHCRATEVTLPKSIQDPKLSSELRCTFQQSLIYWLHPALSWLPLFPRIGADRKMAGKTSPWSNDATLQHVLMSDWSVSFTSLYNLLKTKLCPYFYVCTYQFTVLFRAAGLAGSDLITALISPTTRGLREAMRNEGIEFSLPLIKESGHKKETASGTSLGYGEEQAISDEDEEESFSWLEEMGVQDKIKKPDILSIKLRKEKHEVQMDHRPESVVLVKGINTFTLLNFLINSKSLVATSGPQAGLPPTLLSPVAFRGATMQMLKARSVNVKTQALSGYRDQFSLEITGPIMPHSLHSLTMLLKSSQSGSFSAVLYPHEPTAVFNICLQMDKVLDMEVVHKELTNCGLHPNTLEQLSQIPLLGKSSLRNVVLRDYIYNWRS
UniProt Q9BY27: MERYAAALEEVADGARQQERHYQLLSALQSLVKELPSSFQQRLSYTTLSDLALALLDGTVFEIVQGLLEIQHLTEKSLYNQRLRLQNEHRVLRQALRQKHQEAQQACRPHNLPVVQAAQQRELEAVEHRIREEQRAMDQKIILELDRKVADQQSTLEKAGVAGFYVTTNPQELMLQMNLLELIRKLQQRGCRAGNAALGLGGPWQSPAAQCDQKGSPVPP
UniProt Q9Y2G8: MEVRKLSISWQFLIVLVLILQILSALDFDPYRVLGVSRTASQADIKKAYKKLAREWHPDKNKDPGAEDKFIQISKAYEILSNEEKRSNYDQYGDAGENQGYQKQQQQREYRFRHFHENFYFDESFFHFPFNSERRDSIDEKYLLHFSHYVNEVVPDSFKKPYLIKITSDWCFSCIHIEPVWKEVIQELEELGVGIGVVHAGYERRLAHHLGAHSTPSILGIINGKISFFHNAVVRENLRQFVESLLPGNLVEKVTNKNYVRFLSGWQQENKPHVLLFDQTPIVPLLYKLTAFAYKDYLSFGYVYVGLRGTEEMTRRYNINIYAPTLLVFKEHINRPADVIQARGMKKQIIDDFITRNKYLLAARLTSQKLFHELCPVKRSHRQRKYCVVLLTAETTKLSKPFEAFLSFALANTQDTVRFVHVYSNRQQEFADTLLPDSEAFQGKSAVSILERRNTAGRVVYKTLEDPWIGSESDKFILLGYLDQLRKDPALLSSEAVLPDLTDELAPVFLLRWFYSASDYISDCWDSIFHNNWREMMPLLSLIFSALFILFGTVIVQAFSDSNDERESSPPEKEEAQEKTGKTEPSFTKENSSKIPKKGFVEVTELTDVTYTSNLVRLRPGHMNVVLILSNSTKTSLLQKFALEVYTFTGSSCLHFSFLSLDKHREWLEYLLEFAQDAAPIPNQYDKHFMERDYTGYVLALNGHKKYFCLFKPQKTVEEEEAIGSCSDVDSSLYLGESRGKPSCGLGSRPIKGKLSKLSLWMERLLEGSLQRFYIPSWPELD
UniProt Q5JWR5: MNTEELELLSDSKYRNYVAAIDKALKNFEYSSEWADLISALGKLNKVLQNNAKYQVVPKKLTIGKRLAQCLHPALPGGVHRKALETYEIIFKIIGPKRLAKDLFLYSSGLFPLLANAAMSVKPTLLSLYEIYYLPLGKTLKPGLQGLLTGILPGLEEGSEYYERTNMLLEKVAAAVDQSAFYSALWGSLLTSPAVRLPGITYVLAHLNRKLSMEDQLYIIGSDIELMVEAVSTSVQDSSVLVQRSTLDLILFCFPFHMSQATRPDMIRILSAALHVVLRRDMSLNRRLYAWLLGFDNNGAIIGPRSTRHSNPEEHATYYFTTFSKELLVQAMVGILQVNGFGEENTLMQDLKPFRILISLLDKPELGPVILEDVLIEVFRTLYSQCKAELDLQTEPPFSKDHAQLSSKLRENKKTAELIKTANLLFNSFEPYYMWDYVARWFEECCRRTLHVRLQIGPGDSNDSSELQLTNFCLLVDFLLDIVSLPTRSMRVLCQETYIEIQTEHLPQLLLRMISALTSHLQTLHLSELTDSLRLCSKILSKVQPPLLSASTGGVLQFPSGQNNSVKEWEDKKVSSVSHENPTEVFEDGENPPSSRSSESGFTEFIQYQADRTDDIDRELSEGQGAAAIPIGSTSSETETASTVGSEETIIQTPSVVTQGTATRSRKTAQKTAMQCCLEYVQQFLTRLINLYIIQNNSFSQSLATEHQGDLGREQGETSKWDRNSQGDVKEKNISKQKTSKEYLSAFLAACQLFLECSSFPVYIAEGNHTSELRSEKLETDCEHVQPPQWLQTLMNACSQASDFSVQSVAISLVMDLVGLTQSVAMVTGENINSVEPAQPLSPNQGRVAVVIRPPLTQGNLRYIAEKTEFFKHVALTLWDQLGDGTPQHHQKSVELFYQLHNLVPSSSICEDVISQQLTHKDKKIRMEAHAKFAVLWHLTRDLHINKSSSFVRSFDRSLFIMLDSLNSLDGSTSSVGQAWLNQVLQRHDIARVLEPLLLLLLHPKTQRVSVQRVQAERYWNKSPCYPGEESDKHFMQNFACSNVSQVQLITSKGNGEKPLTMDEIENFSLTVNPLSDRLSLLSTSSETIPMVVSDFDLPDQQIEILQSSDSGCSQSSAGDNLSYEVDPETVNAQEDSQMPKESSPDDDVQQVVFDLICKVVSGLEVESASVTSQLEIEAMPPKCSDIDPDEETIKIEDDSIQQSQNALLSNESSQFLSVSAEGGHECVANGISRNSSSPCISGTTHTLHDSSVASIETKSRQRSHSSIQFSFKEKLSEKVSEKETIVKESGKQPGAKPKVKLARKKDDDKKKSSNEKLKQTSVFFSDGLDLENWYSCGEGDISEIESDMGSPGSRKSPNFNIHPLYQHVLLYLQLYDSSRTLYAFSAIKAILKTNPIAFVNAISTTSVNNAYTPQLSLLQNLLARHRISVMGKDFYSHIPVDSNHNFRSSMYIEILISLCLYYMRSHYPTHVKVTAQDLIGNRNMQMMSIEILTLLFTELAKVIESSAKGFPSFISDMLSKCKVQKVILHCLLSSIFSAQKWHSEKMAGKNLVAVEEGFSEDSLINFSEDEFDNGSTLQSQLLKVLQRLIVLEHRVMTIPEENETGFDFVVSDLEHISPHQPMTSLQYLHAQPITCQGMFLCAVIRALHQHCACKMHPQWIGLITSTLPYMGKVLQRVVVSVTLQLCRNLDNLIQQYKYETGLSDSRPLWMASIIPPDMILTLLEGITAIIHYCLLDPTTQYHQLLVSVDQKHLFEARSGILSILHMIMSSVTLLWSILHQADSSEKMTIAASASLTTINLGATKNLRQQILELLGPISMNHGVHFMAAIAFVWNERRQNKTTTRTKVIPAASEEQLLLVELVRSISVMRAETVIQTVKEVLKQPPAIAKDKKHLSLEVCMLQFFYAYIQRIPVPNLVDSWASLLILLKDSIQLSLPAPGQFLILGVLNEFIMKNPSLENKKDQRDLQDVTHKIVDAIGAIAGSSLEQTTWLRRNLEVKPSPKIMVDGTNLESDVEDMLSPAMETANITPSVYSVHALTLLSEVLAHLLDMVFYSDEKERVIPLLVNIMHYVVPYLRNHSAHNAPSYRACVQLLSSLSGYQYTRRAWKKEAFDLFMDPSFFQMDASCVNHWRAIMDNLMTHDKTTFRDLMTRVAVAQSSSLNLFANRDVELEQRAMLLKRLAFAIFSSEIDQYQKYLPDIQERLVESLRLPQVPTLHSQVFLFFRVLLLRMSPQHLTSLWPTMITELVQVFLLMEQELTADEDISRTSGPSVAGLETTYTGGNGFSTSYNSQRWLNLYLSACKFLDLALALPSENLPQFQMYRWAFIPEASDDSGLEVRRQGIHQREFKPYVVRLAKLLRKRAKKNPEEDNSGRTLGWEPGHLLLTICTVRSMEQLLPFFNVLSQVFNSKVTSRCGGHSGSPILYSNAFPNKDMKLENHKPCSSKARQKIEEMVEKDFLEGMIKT
UniProt Q6UX07: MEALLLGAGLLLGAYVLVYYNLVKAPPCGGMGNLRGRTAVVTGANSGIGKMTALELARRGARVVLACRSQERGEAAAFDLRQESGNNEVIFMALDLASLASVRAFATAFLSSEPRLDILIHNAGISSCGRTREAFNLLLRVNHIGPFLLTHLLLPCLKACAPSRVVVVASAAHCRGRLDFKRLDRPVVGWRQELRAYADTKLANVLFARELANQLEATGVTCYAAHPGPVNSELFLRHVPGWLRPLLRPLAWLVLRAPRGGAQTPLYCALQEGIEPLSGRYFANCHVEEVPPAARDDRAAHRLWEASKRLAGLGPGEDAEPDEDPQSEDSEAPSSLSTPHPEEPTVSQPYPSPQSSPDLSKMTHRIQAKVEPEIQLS
UniProt Q5SXM8: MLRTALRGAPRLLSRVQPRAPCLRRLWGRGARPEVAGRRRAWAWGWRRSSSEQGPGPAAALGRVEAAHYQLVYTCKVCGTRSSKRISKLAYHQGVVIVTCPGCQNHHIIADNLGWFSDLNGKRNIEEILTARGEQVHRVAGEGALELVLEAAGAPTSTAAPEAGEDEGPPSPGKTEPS

Compound in the assay: COc1cc2ncnc(Nc3ccc(F)c(Cl)c3)c2cc1OCCCN1CCOCC1 [gefitinib]
The assay is described as follows: log2 fold change, soluble protein after heating vs DMSO (PISA); higher = thermal stabilisation; K562 lysate, 10 uM; active = over 0.2 and 3.5 SD of the protein, either way, in both replicates (recomputed). The essentials: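 Dounce homogenisation of K562 pellets in PBS pH 7.4 with 1 mM MgCl2 produced a crude extract, used at 1 mg/mL protein. Exposure to 10 μM compound lasted 30 min, and aliquots were then heated for 3 min across 48°C-58°C, pooled and brought to 0.5% NP-40 at 4°C. The supernatant after 21,000xg for 90 min was quantified by TMTpro 16plex LC-MS/MS with channel sums equalised. Duplicate values are given as log-two fold change in thermal stability relative to solvent controls.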
Turning to DNM2 isoform 4 (UniProt P50570), the log2 fold change is inactive: 0.029.
As for DNAJC19, A0A2R8Y839, the figure is inactive: 0.032.
In the case of DNM1 (UniProt Q05193), the log2 fold change was inactive: 0.134.
As for DHTKD1 (UniProt Q96HY7), the figure is inactive: 0.007.
Turning to DONSON (UniProt Q9NYP3), the log2 fold change is inactive: 0.075.
As for DGCR6L (UniProt Q9BY27), the figure is inactive: 0.171; as for DOCK11, A0A0J9YW64, inactive: 0.079; as for DNAJB1 (UniProt M0R128), inactive: 0.347.
On to DNAJC16 (UniProt Q9Y2G8), for which the log2 fold change is inactive: -0.118.
For DOP1A (UniProt Q5JWR5), the log2 fold change was inactive: 0.036.
Regarding DNMT1 (UniProt P26358), the log2 fold change was inactive: 0.117.
As for DHPS (UniProt M0R1T2), the figure is inactive: 0.175; as for DPAGT1 (UniProt Q9H3H5), inactive: 0.045.
Next, DNPEP (UniProt B9ZVU2): inactive: -0.052; DNASE1L1 (UniProt P49184): inactive: 0.037.
For DHRS13 (UniProt Q6UX07), the log2 fold change was inactive: 0.036.
Turning to DNLZ (UniProt Q5SXM8), the log2 fold change was inactive: -0.027.

(Values after the supplement of paper PMC10849652.)
